The list is a part of this screen's results and no random one: it gathers tests that were run many times, whatever their T/C, doses with no T/C, and many T/C values between a quarter and a half above the control. Further doses and runs are listed elsewhere. T/C: endpoint of the treated group in % of that of the vehicle group. Some entries give survivors of the animals treated and no T/C: the source holds a T/C of zero for them, seemingly a mark for toxic or unscored doses. Some doses without a T/C left all or most animals alive at the check, yet need not have been tolerated: survival well below the control is almost never listed, so the zero probably covers shortened survival too. Counts of survivors are from the toxicity check (mostly the fifth day) where no day follows; animals may have died later. Schedule codes are those of the source, taken here to give the interval after Q, in days (D) or hours (H), and the number of doses after X. Some entries were tested several times; the values are given in rising order. Some schedules carry Z or #; the key to these is not given. Signs of the kind (2×) give the number of equal values in this list. Where survival is the endpoint, this PubChem deposit counts one and a half times the control or more as active, and values a quarter to a half above the control carry no call in these data; other NCI protocols may use other cut-offs. Some T/C values are followed by the survivors on the day toxicity was checked, most often the fifth; without a count, all were alive then.
Tested on: L1210 leukemia ip in BDF1 mice, survival T/C
Experiment: NCI In Vivo Anticancer Drug Screen. Data for tumor model L1210 Leukemia (intraperitoneal) in B6D2F1 (BDF1) mice
Conditions: T/C endpoint: mean survival time, higher T/C = longer survival
[1] = dose: 200.0 mg/kg/injection, schedule: Q01DX009 (ip), vehicle: Klucel (hydroxypropylcellulose) (HPC)
[2] = dose: 400.0 mg/kg/injection, schedule: Q01DX009 (ip), vehicle: Klucel (hydroxypropylcellulose) (HPC)
[3] = dose: 400.0 mg/kg/injection, schedule: Q01DX009 (ip), vehicle: saline with Tween-80
[4] = dose: 100.0 mg/kg/injection, schedule: Q04DX003 (ip), vehicle: saline with Tween-80
[5] = dose: 200.0 mg/kg/injection, schedule: Q04DX003 (ip), vehicle: saline with Tween-80
[6] = dose: 400.0 mg/kg/injection, schedule: Q04DX003 (ip), vehicle: saline with Tween-80
[7] = dose: 100.0 mg/kg/injection, schedule: Q04DX002 (ip), vehicle: saline with Tween-80
[8] = dose: 200.0 mg/kg/injection, schedule: Q04DX002 (ip), vehicle: saline with Tween-80
[9] = dose: 400.0 mg/kg/injection, schedule: Q04DX002 (ip), vehicle: saline with Tween-80
[10] = dose: 200.0 mg/kg/injection, schedule: Q01DX009 (ip), vehicle: saline
[11] = dose: 400.0 mg/kg/injection, schedule: Q04DX003 (ip), vehicle: saline
[12] = dose: 25.0 mg/kg/injection, schedule: Q01DX009 (ip), vehicle: saline with Tween-80
[13] = dose: 400.0 mg/kg/injection, schedule: Q04DX003 (ip), vehicle: Klucel (hydroxypropylcellulose) (HPC)
[14] = dose: 200.0 mg/kg/injection, schedule: Q04DX003 (ip), vehicle: saline
[15] = dose: 200.0 mg/kg/injection, schedule: Q01DX001 (ip), vehicle: saline
[16] = dose: 400.0 mg/kg/injection, schedule: Q01DX001 (ip), vehicle: saline

In the case of `CC1(C)CCC(N)CC1`, the survivor count (dose: 300.0 mg/kg/injection, schedule: Q01DX001 (ip), vehicle: saline) is reported as 0 of 6.
For `Cc1nnc(NC(=O)CCl)s1`, the survivor count [1] was 4 of 6 and the survivor count [2] was 0 of 6.
In the case of `O=Cc1[nH]c(=S)[nH]c(=O)c1Cc1cccc2ccccc12`, the survivor count [3] is reported as 3 of 6.
For `COc1ccccc1[As](=O)(O)CC(O)COc1ccc(Cl)cc1Cl` (centres undefined), the survivor count (dose: 25.0 mg/kg/injection, schedule: Q04DX003 (ip), vehicle: saline with Tween-80) was 6 of 6, the survivor count (dose: 50.0 mg/kg/injection, schedule: Q04DX003 (ip), vehicle: saline with Tween-80) was 5 of 6 and the survivor count [4] was 0 of 6 (2×). The survivor count [5] was 0 of 6 and the survivor count [6] was 0 of 6.
For `O=C1NC2C3CCC(C3)C12` (centres undefined), the survivor count (dose: 100.0 mg/kg/injection, schedule: Q04DX002 (ip), vehicle: saline) was 0 of 3, the survivor count (dose: 200.0 mg/kg/injection, schedule: Q04DX002 (ip), vehicle: saline) was 0 of 3 and the survivor count (dose: 400.0 mg/kg/injection, schedule: Q04DX002 (ip), vehicle: saline) was 0 of 3.
With `C[CH2][Ge]([CH2]C)[O][Ge]([CH2]C)[CH2]C` the survivor count [7] was 0 of 3, the survivor count [8] was 0 of 3 and the survivor count [9] was 0 of 3.
For `Cc1nc(-c2ccc(N=Cc3ccc(N(CCOS(C)(=O)=O)CCOS(C)(=O)=O)cc3C)cc2)c(C)s1`, the T/C (dose: 20.0 mg/kg/injection, schedule: Q01DX009 (ip), vehicle: Klucel (hydroxypropylcellulose) (HPC)) was 135 % of control [5 of 6 alive], the T/C (dose: 40.0 mg/kg/injection, schedule: Q01DX001 (ip), vehicle: Klucel (hydroxypropylcellulose) (HPC)) was 131 % of control and the survivor count (dose: 80.0 mg/kg/injection, schedule: Q01DX001 (ip), vehicle: Klucel (hydroxypropylcellulose) (HPC)) was 6 of 6. For the same compound, the survivor count (dose: 100.0 mg/kg/injection, schedule: Q01DX001 (ip), vehicle: Klucel (hydroxypropylcellulose) (HPC)) was 1 of 6, the survivor count (dose: 200.0 mg/kg/injection, schedule: Q01DX001 (ip), vehicle: Klucel (hydroxypropylcellulose) (HPC)) was 0 of 6 and the survivor count (dose: 400.0 mg/kg/injection, schedule: Q01DX001 (ip), vehicle: Klucel (hydroxypropylcellulose) (HPC)) was 0 of 6.
`N=C(N)SCCCN` was tested, and the survivor count [10] was 3 of 6, the survivor count (dose: 400.0 mg/kg/injection, schedule: Q01DX009 (ip), vehicle: saline) was 0 of 6 and the survivor count [11] was 2 of 6.
`Cn1cnc([N+](=O)[O-])c1SC#N` was tested, and the survivor count (dose: 30.0 mg/kg/injection, schedule: Q01DX001 (ip), vehicle: carboxymethylcellulose (CMC)) was 0 of 6, the survivor count (dose: 60.0 mg/kg/injection, schedule: Q01DX001 (ip), vehicle: carboxymethylcellulose (CMC)) was 0 of 6 and the survivor count (dose: 75.0 mg/kg/injection, schedule: Q01DX001 (ip), vehicle: carboxymethylcellulose (CMC)) was 0 of 6. For the same compound, the survivor count (dose: 150.0 mg/kg/injection, schedule: Q01DX001 (ip), vehicle: carboxymethylcellulose (CMC)) was 0 of 6 and the survivor count (dose: 300.0 mg/kg/injection, schedule: Q01DX001 (ip), vehicle: carboxymethylcellulose (CMC)) was 0 of 6.
With `CCCCCCCCc1ccc(NC(N)=S)cc1` the survivor count (dose: 6.25 mg/kg/injection, schedule: Q01DX009 (ip), vehicle: saline with Tween-80) was 3 of 3, the survivor count [12] was 1 of 3 and the survivor count (dose: 50.0 mg/kg/injection, schedule: Q01DX009 (ip), vehicle: saline) was 0 of 3. For the same compound, the survivor count (dose: 100.0 mg/kg/injection, schedule: Q01DX009 (ip), vehicle: saline) was 0 of 3 and the survivor count [10] was 0 of 3.
With `CN(Cc1ccccc1)Cc1ccccc1` the survivor count [13] was 2 of 6.
With `CCCCCCCCCCCCCCCC[N+]1(C)CCOCC1` the survivor count [1] was 0 of 3.
For `CCCCCCCCC(CO)(CCCCCCC)C(=O)O` (centres undefined), the survivor count [9] was 0 of 3.
For `S=C=NCc1cccc(CN=C=S)c1`, the survivor count (dose: 12.5 mg/kg/injection, schedule: Q01DX009 (ip), vehicle: saline with Tween-80) was 3 of 6, the survivor count [12] was 1 of 6 and the survivor count (dose: 100.0 mg/kg/injection, schedule: Q04DX003 (ip), vehicle: Klucel (hydroxypropylcellulose) (HPC)) was 0 of 6. The survivor count (dose: 200.0 mg/kg/injection, schedule: Q04DX003 (ip), vehicle: Klucel (hydroxypropylcellulose) (HPC)) was 0 of 6 and the survivor count [13] was 0 of 6.
With `C#CCSP(=O)(O)O` the survivor count (dose: 100.0 mg/kg/injection, schedule: Q01DX009 (ip), vehicle: saline with Tween-80) was 3 of 3 and 6 of 6, the survivor count (dose: 200.0 mg/kg/injection, schedule: Q01DX009 (ip), vehicle: saline with Tween-80) was 6 of 6 and the survivor count [3] was 0 of 6.
With `O=C(Nc1ccccc1)OCC(OC(=O)Nc1ccccc1)C(COC(=O)Nc1ccccc1)OC(=O)Nc1ccccc1` (centres undefined) the survivor count [7] was 3 of 3 and the survivor count [8] was 3 of 3.
In the case of `NC(CC(=O)O)C(=O)OCc1ccccc1` (centres undefined), the survivor count [2] is reported as 1 of 3.
With `Oc1cncc2ccccc12` the survivor count [14] was 6 of 6.
For `O=Nc1ccc(SCC(=O)NNC(=O)CSc2ccc(N=O)cc2[N+](=O)[O-])cc1`, the survivor count [5] was 0 of 3 and the survivor count [6] was 0 of 3.
In the case of `ClCC1=NCCN1`, the survivor count (dose: 100.0 mg/kg/injection, schedule: Q04DX002 (ip), vehicle: Klucel (hydroxypropylcellulose) (HPC)) is reported as 3 of 3, the survivor count (dose: 200.0 mg/kg/injection, schedule: Q04DX002 (ip), vehicle: Klucel (hydroxypropylcellulose) (HPC)) is reported as 0 of 3 and the survivor count (dose: 400.0 mg/kg/injection, schedule: Q04DX002 (ip), vehicle: Klucel (hydroxypropylcellulose) (HPC)) is reported as 0 of 3.
In the case of `COC(=O)/C=C(\C)C(C)=Nc1ccccc1`, the survivor count [6] is reported as 1 of 6.
In the case of `O=C1NC(=O)C([n+]2ccccc2)=C1[O-]`, the survivor count [11] is reported as 0 of 3.
In the case of `C=CCOCC(O)CN(C)C1CCCCC1` (centres undefined), the survivor count [10] is reported as 0 of 6, the survivor count [14] is reported as 0 of 6 and the survivor count [11] is reported as 0 of 6.
With `CNC(C)(C)C(SS)c1ccc(Cl)cc1` (centres undefined) the survivor count [4] was 3 of 6, the survivor count [5] was 2 of 6 and the survivor count [6] was 0 of 6.
For `O=C(O)c1ccc(NC(=O)c2ccc(C(=O)Nc3ccc(C(=O)O)cc3)cc2)cc1`, the survivor count (dose: 30.0 mg/kg/injection, schedule: Q01DX Z (ip), vehicle: methylcellulose (MC)) was 4 of 6.
`N#CC(=C=[N-])[n+]1ccccc1` was tested, and the survivor count (dose: 25.0 mg/kg/injection, schedule: Q01DX009 (ip), vehicle: saline) was 3 of 6, the survivor count (dose: 75.0 mg/kg/injection, schedule: Q01DX001 (ip), vehicle: saline) was 2 of 6 and the survivor count (dose: 100.0 mg/kg/injection, schedule: Q01DX001 (ip), vehicle: saline) was 0 of 6. The survivor count [15] was 0 of 6 and the survivor count [16] was 0 of 6.
With `CC(=O)Nc1cc2cc(Br)ccc2oc1=O` the survivor count [2] was 6 of 6.
In the case of `CC(=O)c1cc(N)ccc1SC#N`, the survivor count [4] is reported as 0 of 6, the survivor count [5] is reported as 0 of 6 and the survivor count [6] is reported as 0 of 6.
For `CN(C)N1CCC2(CCC(C(C)(C)C)CC2)CC1`, the survivor count (dose: 200.0 mg/kg/injection, schedule: Q01DX001 (ip), vehicle: carboxymethylcellulose (CMC)) was 0 of 4 and the survivor count (dose: 400.0 mg/kg/injection, schedule: Q01DX001 (ip), vehicle: carboxymethylcellulose (CMC)) was 0 of 4.
For `N#[N+]c1ccc(Br)cc1-c1nc(N)nc(N)n1`, the survivor count (dose: 75.0 mg/kg/injection, schedule: Q01DX009 (ip), vehicle: saline) was 5 of 6, the survivor count (dose: 100.0 mg/kg/injection, schedule: Q04DX003 (ip), vehicle: saline) was 5 of 6 and the survivor count (dose: 115.0 mg/kg/injection, schedule: Q01DX009 (ip), vehicle: saline) was 0 of 6. For the same compound, the survivor count [15] was 0 of 6 and the survivor count [16] was 0 of 6.

Source: PubChem BioAssay AID248 (DTP/NCI, 2004)
